Data: US20260146099A1 (SELVAX, published 2026)
No constants are given. Whether binding was seen depends on the method and setting. Some binding calls cover weakened binding; strength is not graded here. Tags and fused reporters may be left off the sequences shown.

Amino acid sequences for entries named in this document (tags omitted). Residues count along the entry.
UniProt O97626, residues 112-260: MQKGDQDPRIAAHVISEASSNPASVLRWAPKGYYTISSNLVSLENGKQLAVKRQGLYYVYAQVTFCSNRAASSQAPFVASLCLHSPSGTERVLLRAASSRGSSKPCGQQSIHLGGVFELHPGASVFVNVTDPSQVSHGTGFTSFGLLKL

Key:
[1] = target: T1, Recombinant canine CD40 extracellular domain with human IgG1 Fc domain tag (canine; human) (UniProt Q7YRL5); assay: pair-wise SPR, caCD40-Fc immobilised
T1 sequence (looked up): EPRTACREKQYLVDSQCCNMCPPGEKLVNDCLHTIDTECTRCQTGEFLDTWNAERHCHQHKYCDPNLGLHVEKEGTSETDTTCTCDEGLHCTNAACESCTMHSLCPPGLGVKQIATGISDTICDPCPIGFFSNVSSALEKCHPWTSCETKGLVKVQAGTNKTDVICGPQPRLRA

[2] = target: T1, Recombinant canine CD40 extracellular domain with human IgG1 Fc domain tag (canine; human); assay: SPR pair-wise binding, caCD40-Fc on the chip already loaded with SVX-2001 at 25 µg/ml
[3] = target: T1, Recombinant canine CD40 extracellular domain with human IgG1 Fc domain tag (canine; human); assay: pair-wise SPR, caCD40-Fc immobilised, SVX-2001 injected first, caCD40L second

Measured: binding

canine CD40 ligand (from UniProt O97626 112-260)
binds: all assays above
